From the supplement of paper PMC7411640
Where a name gives a salt, the structure may show the parent alone. The list shows a part of the results. Most values lie within the scatter of the assay; repeated measurements hardly agree.

System: MDA-MB-468
Assay: phospho-S6 immunofluorescence (DAPI-normalised), per-plate z-score; higher = higher phospho-S6 signal (less pathway suppression)
Conditions: compound 0.1 µM; co-treatment: lapatinib 1 uM; 24 h
Protocol: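 GPCR-targeted compound library (MedChemExpress HY-L006) tested on MDA-MB-468 PTEN-null TNBC cells in 384-well plates at 0.1, 1 or 10 uM, combined with vehicle, GDC0941 450 nM or lapatinib 1 uM, for 24 h. Phospho-S6 (S240/244) immunofluorescence normalised to DAPI and expressed as a per-plate z-score; values are the mean of biological triplicates.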

Compound | phospho-S6 immunofluorescence (z-score)
CCOC(=O)N[C@@H]1CC[C@@H]2[C@@H](C1)C[C@H]1C(=O)O[C@H](C)[C@H]1[C@H]2/C=C/c1ccc(-c2cccc(F)c2)cn1 [Vorapaxar] | -3.21
CC(C)c1noc(N2CCC(COc3ccc(-c4ccc(S(C)(=O)=O)cc4)nc3)CC2)n1 | -0.65
CC(C)NCC(O)COc1ccc(CCOCC2CC2)cc1 (configuration not stated) [Betaxolol (hydrochloride)] | -0.16
CC(C)NC[C@H](O)COc1ccc(CCOCC2CC2)cc1 [Levobetaxolol (hydrochloride)] | -0.65
OC(CCN1CCCCC1)(c1ccccc1)C1CCCCC1 (configuration not stated) [Trihexyphenidyl (hydrochloride)] | 0.66
Clc1cccc(COc2cncc(N3CCNCC3)n2)c1 | 0.4
Cc1c(C(=O)NN2CCCCC2)nn(-c2ccc(Cl)cc2Cl)c1-c1ccc(Cl)cc1 [Rimonabant (Hydrochloride)] | -0.27
CCOc1ccccc1OCCN[C@H](C)Cc1ccc(OC)c(S(N)(=O)=O)c1 [Tamsulosin] | -0.33
CN(C)CCOC(C)(c1ccccc1)c1ccccn1 (configuration not stated) [Doxylamine (succinate)] | -0.56
COCCCN1CCC(NC(=O)c2cc(Cl)c(N)c3c2OCC3)CC1 [Prucalopride] | 0.02
Nc1nc(CC(=O)Nc2ccc(CCNC[C@H](O)c3ccccc3)cc2)cs1 [Mirabegron] | 0.89
CCNC(=O)[C@@H]1CCCN1C(=O)[C@H](CCCNC(=N)N)NC(=O)[C@H](CC(C)C)NC(=O)[C@@H](COC(C)(C)C)NC(=O)[C@H](Cc1ccc(O)cc1)NC(=O)[C@H](CO)NC(=O)[C@H](Cc1c[nH]c2ccccc12)NC(=O)[C@H](Cc1cnc[nH]1)NC(=O)[C@@H]1CCC(=O)N1 [Buserelin (Acetate)] | 0.92

Rewritten as a markdown table: part of the list above.

| Compound | phospho-S6 immunofluorescence (z-score) |
| --- | --- |
| CC(C)NC[C@H](O)COc1ccc(CCOCC2CC2)cc1 [Levobetaxolol (hydrochloride)] | -0.65 |
| OC(CCN1CCCCC1)(c1ccccc1)C1CCCCC1 (configuration not stated) [Trihexyphenidyl (hydrochloride)] | 0.66 |
| Clc1cccc(COc2cncc(N3CCNCC3)n2)c1 | 0.4 |
